From PMC5562305, “Impact of novel palmitoylated prolactin-releasing peptide analogs on metabolic changes in mice with diet-induced obesity” (PLoS ONE, 2017)
Starred links: 1 amine or outer side, 2 acyl side, 3 side chain; linkers in the order of their positions; H or OH if unused. Residues, ends and D or L forms follow the SMILES beside them. Groups on a side chain read outwards from the residue. *: point of attachment. TTDA(Palmitoyl) = CCCCCCCCCCCCCCCC(=O)NCCCOCCOCCOCCCN*; γGlu = O=C(O)[C@H](CCC(=O)[*:2])N[*:1]; Palmitoyl = CCCCCCCCCCCCCCCC(=O)*; Suc = O=C(CCC(=O)[*:2])[*:1]

Test system: urinary metabolites
Assay: NMR-based metabolomics of urine of DIO mice
Assay type: in vivo, C57BL/6 mice
Details: 2-week treatment, vs HF diet-fed saline group, in words
Description: Urine samples for NMR-based metabolomics were collected prior to the start of the interventions and at the end of the experiment. For overnight urine collection (from 5 pm to 8 am), the mice were housed in individual metabolic cages (Tecniplast, Buguggiate, Italy) without access to food. Samples were collected with the addition of NaN3 and stored at -80°C until NMR analysis.
The urine samples were thawed at room temperature and centrifuged at 13 684 x g for 5 min prior to the NMR experiments. A 200-μl aliquot of supernatant was diluted with 340 μl of H2O mixed with 60 μl of phosphate buffer (1.5 M KH2PO4 in D2O containing 2 mM NaN3 and 0.1% trimethylsilyl propionic acid (TSP), pH 7.4) and transferred to a 5-mm NMR tube. The NMR data were acquired with a 600 MHz Bruker Avance III spectrometer (Bruker BioSpin, Rheinstetten, Germany) equipped with a 5-mm TCI cryogenic probe head. All of the experiments were performed at 300 K. Automatic tuning, matching, shimming and adjusting of the 90° pulse length were performed for each sample.
As mouse urine naturally contains urinary proteins, the NMR spectra were acquired using a Carr-Purcell-Meiboom-Gill (CPMG) pulse sequence with water presaturation (Bruker pulse sequence cpmgpr1d) to eliminate the strong protein background. […] For better metabolite identification, a short J-resolved experiment with presaturation (NS = 2, SW = 16 ppm, TD = 8k, number of increments = 40, SW = 78.125 Hz in the indirect dimension, and relaxation delay = 2 s) was executed for all samples. Additional two-dimensional ^1H-^1H correlation spectroscopy (COSY) and ^1H-^13C heteronuclear multiple-quantum correlation (HMQC) experiments (Bruker pulse sequences cosygpprqf and hmqcphpr) were performed for selected samples.
The acquired data were processed using Topspin 3.2 software (Bruker BioSpin, Rheinstetten, Germany). Line broadening of 0.3 Hz was applied on free induction decays (FIDs) prior to Fourier transformation. The spectra were automatically phased, baseline corrected and referenced to the signal of TSP (0.00 ppm).
The assignment of individual metabolites was achieved by comparing the proton spectra with the spectra of pure metabolites using Chenomx NMR Suite 7.6 (Chenomx Inc., Edmonton, AB, Canada), the HMDB database and previously published metabolomic data. The identification of metabolites was supported through J-resolved and COSY experiments and, if possible, confirmed using carbon chemical shifts extracted from the HMQC spectra.
For quantitation of individual metabolites, the CPMG spectra were uniformly binned in the range of 0.10–10.00 ppm to 0.01-ppm intervals using AMIX software (Bruker BioSpin, Rheinstetten, Germany). This procedure reduced the dimensionality of the data, eliminated chemical shift variations and thus simplified the reproducible automatic quantification. Regions corresponding to water (4.60–4.90 ppm) and urea (5.60–6.00 ppm) were removed prior to analysis. As the dilutions of the original urine samples differed (due to the differences in water intake during urine collection), all of the spectra were normalized to the total spectral area (TSA). For each identified metabolite, one representative signal was chosen and then quantified as the sum of appropriate adjacent 0.01-ppm bins to cover the whole signal width. The metabolite concentration was expressed as the TSA-normalized intensity of the respective signal. For selection of an appropriate statistical method (parametric or non-parametric) the Lilliefors test of normality was performed. […] Metabolite alterations with a P < 0.05 were considered statistically significant. Statistical analysis was performed using Matlab software (“MATLAB version 8.6 (R2015b). Natick, Massachusetts: The MathWorks Inc., 2015.,” n.d.). […]

| Structure (SMILES) | Urinary concentration of allantoin | Urinary concentration of creatinine | Urinary concentration of dimethylamine | Urinary concentration of phenylacetylglycine (PAG) | Urinary glucose level | Urinary level of 1-methylnicotinamide (MNA) | Urinary level of N-methyl-2-pyridone-5-carboxamide (2-PY) | Urinary level of N-methyl-4-pyridone-3-carboxamide (4-PY) | Urinary signals at 0.85-0.91 ppm (hexanoylglycine and SCFA derivatives) | Urinary taurine concentration |
| --- | --- | --- | --- | --- | --- | --- | --- | --- | --- | --- |
| CCCCCCCCCCCCCCCC(=O)N[C@@H](CCC(=O)NCCCC[C@H](NC(=O)[C@@H](NC(=O)[C@H](CCC(=O)O)NC(=O)[C@H](CCSC)NC(=O)[C@H](CO)NC(=O)[C@H](Cc1c[nH]cn1)NC(=O)[C@H](CCCNC(=N)N)NC(=O)[C@H](Cc1c[nH]cn1)NC(=O)[C@@H](NC(=O)[C@H](CCCNC(=N)N)NC(=O)[C@@H](N)CO)[C@@H](C)O)[C@@H](C)CC)C(=O)N[C@H](C(=O)N1CCC[C@H]1C(=O)N[C@@H](CC(=O)O)C(=O)N[C@H](C(=O)N[C@@H](CC(N)=O)C(=O)N1CCC[C@H]1C(=O)N[C@@H](C)C(=O)N[C@@H](Cc1c[nH]c2ccccc12)C(=O)N[C@@H](Cc1ccc(O)cc1)C(=O)N[C@@H](C)C(=O)N[C@@H](CO)C(=O)N[C@@H](CCCNC(=N)N)C(=O)NCC(=O)N[C@H](C(=O)N[C@@H](CCCNC(=N)N)C(=O)N1CCC[C@H]1C(=O)N[C@H](C(=O)NCC(=O)N[C@@H](CCCNC(=N)N)C(=O)N[C@@H](Cc1ccccc1)C(N)=O)C(C)C)[C@@H](C)CC)[C@@H](C)CC)[C@@H](C)O)C(=O)O [analog 1] (H-SRTHRHSMEIK([γGlu-Palmitoyl])TPDINPAWYASRGIRPVGRF-NH2; N-terminus assumed) | no impact | significant increase | no impact | no impact | significant reduction | attenuated | attenuated | attenuated | increase was significant | significantly attenuated |
| CCCCCCCCCCCCCCCC(=O)NCCCOCCOCCOCCCNC(=O)CCC(=O)NCCCC[C@H](NC(=O)[C@@H](NC(=O)[C@H](CCC(=O)O)NC(=O)[C@H](CCSC)NC(=O)[C@H](CO)NC(=O)[C@H](Cc1c[nH]cn1)NC(=O)[C@H](CCCNC(=N)N)NC(=O)[C@H](Cc1c[nH]cn1)NC(=O)[C@@H](NC(=O)[C@H](CCCNC(=N)N)NC(=O)[C@@H](N)CO)[C@@H](C)O)[C@@H](C)CC)C(=O)N[C@H](C(=O)N1CCC[C@H]1C(=O)N[C@@H](CC(=O)O)C(=O)N[C@H](C(=O)N[C@@H](CC(N)=O)C(=O)N1CCC[C@H]1C(=O)N[C@@H](C)C(=O)N[C@@H](Cc1c[nH]c2ccccc12)C(=O)N[C@@H](Cc1ccc(O)cc1)C(=O)N[C@@H](C)C(=O)N[C@@H](CO)C(=O)N[C@@H](CCCNC(=N)N)C(=O)NCC(=O)N[C@H](C(=O)N[C@@H](CCCNC(=N)N)C(=O)N1CCC[C@H]1C(=O)N[C@H](C(=O)NCC(=O)N[C@@H](CCCNC(=N)N)C(=O)N[C@@H](Cc1ccccc1)C(N)=O)C(C)C)[C@@H](C)CC)[C@@H](C)CC)[C@@H](C)O [analog 2] (H-SRTHRHSMEIK([Suc-TTDA(Palmitoyl)])TPDINPAWYASRGIRPVGRF-NH2; N-terminus assumed) | no impact | – | no impact | no impact | – | attenuated | attenuated | attenuated | – | – |
| CCCCCCCCCCCCCCCC(=O)NCCCOCCOCCOCCCNC(=O)CCC(=O)NCCCC[C@H](NC(=O)[C@@H](NC(=O)[C@H](CCC(=O)O)NC(=O)[C@H](CCSC)NC(=O)[C@H](CO)NC(=O)[C@H](Cc1c[nH]cn1)NC(=O)[C@H](CCCNC(=N)N)NC(=O)[C@H](Cc1c[nH]cn1)NC(=O)[C@@H](NC(=O)[C@H](CCCNC(=N)N)NC(=O)[C@H](CO)NC(=O)CCC(=O)NCCCOCCOCCOCCCNC(=O)CCCCCCCCCCCCCCC)[C@@H](C)O)[C@@H](C)CC)C(=O)N[C@H](C(=O)N1CCC[C@H]1C(=O)N[C@@H](CC(=O)O)C(=O)N[C@H](C(=O)N[C@@H](CC(N)=O)C(=O)N1CCC[C@H]1C(=O)N[C@@H](C)C(=O)N[C@@H](Cc1c[nH]c2ccccc12)C(=O)N[C@@H](Cc1ccc(O)cc1)C(=O)N[C@@H](C)C(=O)N[C@@H](CO)C(=O)N[C@@H](CCCNC(=N)N)C(=O)NCC(=O)N[C@H](C(=O)N[C@@H](CCCNC(=N)N)C(=O)N1CCC[C@H]1C(=O)N[C@H](C(=O)NCC(=O)N[C@@H](CCCNC(=N)N)C(=O)N[C@@H](Cc1ccccc1)C(N)=O)C(C)C)[C@@H](C)CC)[C@@H](C)CC)[C@@H](C)O [analog 3] ({TTDA(Palmitoyl)-Suc}-SRTHRHSMEIK([Suc-TTDA(Palmitoyl)])TPDINPAWYASRGIRPVGRF-NH2) | growing concentrations | – | growing concentrations | growing concentrations | significant reduction | did not influence | did not influence | raised | increase was significant | – |
